Laboratory results taken from publication PMC3762901, “Cyclic Peptide Inhibitors of the β-Sliding Clamp in Staphylococcus aureus” (PLoS ONE, 2013).
No constants are given. Whether binding was seen depends on the method and setting. Some binding calls cover weakened binding; strength is not graded here.

T1: DnaB of S. aureus (S. aureus) (UniProt Q2FXP4)
T1 sequence: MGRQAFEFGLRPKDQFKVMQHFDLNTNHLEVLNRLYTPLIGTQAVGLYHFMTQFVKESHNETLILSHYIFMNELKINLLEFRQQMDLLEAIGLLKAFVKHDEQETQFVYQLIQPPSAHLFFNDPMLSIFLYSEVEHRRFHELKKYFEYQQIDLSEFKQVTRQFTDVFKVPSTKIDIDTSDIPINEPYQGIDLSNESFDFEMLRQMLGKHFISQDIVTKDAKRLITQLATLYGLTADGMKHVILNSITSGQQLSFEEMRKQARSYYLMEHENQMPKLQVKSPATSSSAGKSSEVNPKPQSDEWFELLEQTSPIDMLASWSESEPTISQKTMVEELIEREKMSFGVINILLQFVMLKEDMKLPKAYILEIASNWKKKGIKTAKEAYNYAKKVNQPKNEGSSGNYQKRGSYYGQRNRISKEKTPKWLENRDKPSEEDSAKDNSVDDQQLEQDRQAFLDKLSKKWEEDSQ

T2: DnaA of S. aureus (S. aureus) (UniProt Q2G2H5)
T2 sequence: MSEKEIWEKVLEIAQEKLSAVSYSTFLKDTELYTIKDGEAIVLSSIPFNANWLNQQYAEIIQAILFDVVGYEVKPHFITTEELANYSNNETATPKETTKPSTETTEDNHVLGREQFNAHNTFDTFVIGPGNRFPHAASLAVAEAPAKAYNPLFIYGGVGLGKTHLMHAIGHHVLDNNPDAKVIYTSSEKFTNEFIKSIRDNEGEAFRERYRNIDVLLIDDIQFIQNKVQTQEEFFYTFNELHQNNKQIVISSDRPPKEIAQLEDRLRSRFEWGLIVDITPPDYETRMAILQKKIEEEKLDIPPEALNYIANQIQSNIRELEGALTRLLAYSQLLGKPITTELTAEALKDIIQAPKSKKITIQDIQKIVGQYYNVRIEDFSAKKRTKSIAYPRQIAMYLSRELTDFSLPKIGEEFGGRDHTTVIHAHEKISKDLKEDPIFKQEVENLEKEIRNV

B1: DnaB of S. aureus (protein, UniProt Q2FXP4 1-466)
chain: MGRQAFEFGLRPKDQFKVMQHFDLNTNHLEVLNRLYTPLIGTQAVGLYHFMTQFVKESHNETLILSHYIFMNELKINLLEFRQQMDLLEAIGLLKAFVKHDEQETQFVYQLIQPPSAHLFFNDPMLSIFLYSEVEHRRFHELKKYFEYQQIDLSEFKQVTRQFTDVFKVPSTKIDIDTSDIPINEPYQGIDLSNESFDFEMLRQMLGKHFISQDIVTKDAKRLITQLATLYGLTADGMKHVILNSITSGQQLSFEEMRKQARSYYLMEHENQMPKLQVKSPATSSSAGKSSEVNPKPQSDEWFELLEQTSPIDMLASWSESEPTISQKTMVEELIEREKMSFGVINILLQFVMLKEDMKLPKAYILEIASNWKKKGIKTAKEAYNYAKKVNQPKNEGSSGNYQKRGSYYGQRNRISKEKTPKWLENRDKPSEEDSAKDNSVDDQQLEQDRQAFLDKLSKKWEEDSQ
B2: DnaA of S. aureus (protein, UniProt Q2G2H5 1-453)
chain: MSEKEIWEKVLEIAQEKLSAVSYSTFLKDTELYTIKDGEAIVLSSIPFNANWLNQQYAEIIQAILFDVVGYEVKPHFITTEELANYSNNETATPKETTKPSTETTEDNHVLGREQFNAHNTFDTFVIGPGNRFPHAASLAVAEAPAKAYNPLFIYGGVGLGKTHLMHAIGHHVLDNNPDAKVIYTSSEKFTNEFIKSIRDNEGEAFRERYRNIDVLLIDDIQFIQNKVQTQEEFFYTFNELHQNNKQIVISSDRPPKEIAQLEDRLRSRFEWGLIVDITPPDYETRMAILQKKIEEEKLDIPPEALNYIANQIQSNIRELEGALTRLLAYSQLLGKPITTELTAEALKDIIQAPKSKKITIQDIQKIVGQYYNVRIEDFSAKKRTKSIAYPRQIAMYLSRELTDFSLPKIGEEFGGRDHTTVIHAHEKISKDLKEDPIFKQEVENLEKEIRNV

What was measured:
[1] = target: T1, DnaB of S. aureus (S. aureus); assay: two-hybrid; reverse bacterial two-hybrid (R-BTH) in E. coli SC01 (pyrF behind the lac promoter); growth on LB plates with 1.3 μg/ml 5-FOA, 2 days at 30°C; no growth means interaction
[2] = target: HolB (δ`) of S. aureus (S. aureus); assay: two-hybrid; bacterial two-hybrid (BTH): T18 and T25 fusions (pUT18 and p25N derivatives) in E. coli BTH101; colour of colonies on plates with 40 μg/ml X-gal
[3] = target: T2, DnaA of S. aureus (S. aureus); assay: as above
[4] = target: T1, DnaB of S. aureus (S. aureus); assay: as above

Row | Binder | binding [1] | binding [2] | binding [3] | binding [4]
1 | B1 | binds | no binding | no binding | binds
2 | B2 | – | no binding | binds weakly | –
